According to doi:10.1101/550277:
Where a chain is given by its changes, count along the chain named. These are yes or no findings as the source states them, for the method shown. Binding seen in cells or lysates may run through a third protein. Some entries that bind do so weakly or less than the wild type. For part of these data: Tags and fused reporters may be left off the sequences shown.

Amino acid sequences for entries named in this document (tags omitted).
UniProt Q24117: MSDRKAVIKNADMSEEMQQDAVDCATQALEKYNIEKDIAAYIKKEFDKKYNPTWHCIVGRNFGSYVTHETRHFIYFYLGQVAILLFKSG

What was measured:
Assay in all cases: co-IP
[1] = molecular target: T1, Egl_wt-GFP expressed in S2 cells (second copy in the dimerisation test: Egl_wt-FLAG) (Drosophila) (UniProt Q9W1K4)
T1 sequence: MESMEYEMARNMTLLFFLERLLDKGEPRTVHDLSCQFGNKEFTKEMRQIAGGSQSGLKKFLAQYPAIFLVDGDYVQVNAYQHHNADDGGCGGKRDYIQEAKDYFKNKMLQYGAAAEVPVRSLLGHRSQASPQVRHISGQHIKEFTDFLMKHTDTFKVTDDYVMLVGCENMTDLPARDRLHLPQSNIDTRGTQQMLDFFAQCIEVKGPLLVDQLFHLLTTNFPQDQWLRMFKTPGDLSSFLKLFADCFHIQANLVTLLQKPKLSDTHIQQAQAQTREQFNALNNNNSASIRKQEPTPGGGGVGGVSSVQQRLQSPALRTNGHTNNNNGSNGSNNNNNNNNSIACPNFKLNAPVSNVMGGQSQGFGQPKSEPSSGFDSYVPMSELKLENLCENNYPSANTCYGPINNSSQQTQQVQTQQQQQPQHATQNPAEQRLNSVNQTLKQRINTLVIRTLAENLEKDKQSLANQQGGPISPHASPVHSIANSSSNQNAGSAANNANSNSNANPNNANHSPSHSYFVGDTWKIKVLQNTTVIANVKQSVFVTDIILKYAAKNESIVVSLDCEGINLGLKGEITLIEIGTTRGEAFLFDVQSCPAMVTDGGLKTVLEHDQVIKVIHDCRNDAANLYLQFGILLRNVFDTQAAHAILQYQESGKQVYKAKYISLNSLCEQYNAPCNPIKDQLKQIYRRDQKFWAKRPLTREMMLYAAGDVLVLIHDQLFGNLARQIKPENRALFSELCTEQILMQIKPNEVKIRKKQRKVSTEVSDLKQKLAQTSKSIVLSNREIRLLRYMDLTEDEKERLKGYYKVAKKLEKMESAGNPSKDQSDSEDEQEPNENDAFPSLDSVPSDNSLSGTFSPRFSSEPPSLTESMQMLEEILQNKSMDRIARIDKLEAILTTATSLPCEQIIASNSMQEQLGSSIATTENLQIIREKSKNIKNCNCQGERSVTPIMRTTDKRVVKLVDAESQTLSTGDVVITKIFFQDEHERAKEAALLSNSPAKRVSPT

[2] = molecular target: T2, Egl_4e-RFP expressed in S2 cells (Drosophila) (UniProt Q9W1K4)
T2 sequence: T1 sequence with C35Y

[3] = molecular target: T3, Egl_wt-RFP expressed in S2 cells (Drosophila) (UniProt Q9W1K4)
T3 sequence: T1 sequence

Measured: binding

Dynein light chain/LC8 (Dlc) in S2 cell lysate (from UniProt Q24117 1-89)
binds: all assays above
